Reference: patent publication US20080311122A1, “Antagonists of Hmgb1 and/or Rage and Methods of Use Thereof” (Medimmune, LLC, priority 2005, published 2008)
These are yes or no findings as the source states them, for the method shown. Some entries that bind do so weakly or less than the wild type.

By UniProt entry, the sequences of proteins in these tests, tags left out. Residues count along the entry.
UniProt Q62151, residues 24-342: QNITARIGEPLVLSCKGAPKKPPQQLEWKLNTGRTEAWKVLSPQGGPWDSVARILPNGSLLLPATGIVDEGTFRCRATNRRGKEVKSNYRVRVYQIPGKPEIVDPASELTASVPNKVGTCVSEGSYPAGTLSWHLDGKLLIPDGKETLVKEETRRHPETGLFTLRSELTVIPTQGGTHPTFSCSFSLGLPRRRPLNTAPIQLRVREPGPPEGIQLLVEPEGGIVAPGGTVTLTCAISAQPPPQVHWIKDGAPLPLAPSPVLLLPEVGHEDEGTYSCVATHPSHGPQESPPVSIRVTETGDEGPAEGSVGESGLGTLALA
UniProt P63159: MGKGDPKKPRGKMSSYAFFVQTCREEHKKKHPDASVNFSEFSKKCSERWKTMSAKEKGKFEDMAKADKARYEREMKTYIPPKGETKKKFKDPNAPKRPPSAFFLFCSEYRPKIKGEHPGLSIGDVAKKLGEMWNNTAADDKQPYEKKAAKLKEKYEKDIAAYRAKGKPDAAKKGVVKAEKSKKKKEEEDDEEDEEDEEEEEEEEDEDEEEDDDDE
UniProt P10103, residues 2-215: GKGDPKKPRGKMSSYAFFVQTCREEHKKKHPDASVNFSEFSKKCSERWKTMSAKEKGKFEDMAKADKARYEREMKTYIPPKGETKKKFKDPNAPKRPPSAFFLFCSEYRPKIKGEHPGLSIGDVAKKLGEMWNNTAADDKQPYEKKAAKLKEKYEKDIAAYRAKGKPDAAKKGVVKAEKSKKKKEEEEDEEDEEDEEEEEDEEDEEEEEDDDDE
UniProt Q15109, residues 23-344: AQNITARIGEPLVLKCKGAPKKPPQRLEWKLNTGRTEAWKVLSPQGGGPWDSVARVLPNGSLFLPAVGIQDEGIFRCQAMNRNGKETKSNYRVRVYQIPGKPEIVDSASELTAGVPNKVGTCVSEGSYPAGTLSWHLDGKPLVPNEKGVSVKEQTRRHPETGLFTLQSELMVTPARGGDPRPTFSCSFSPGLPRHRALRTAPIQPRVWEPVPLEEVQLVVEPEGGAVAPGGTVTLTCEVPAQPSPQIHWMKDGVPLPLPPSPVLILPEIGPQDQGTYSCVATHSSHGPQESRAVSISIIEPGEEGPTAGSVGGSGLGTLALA

What was measured:
Mouse RAGE/Fc (mouse) [1] = molecular target: Mouse RAGE/Fc (mouse) (UniProt Q62151); assay: ELISA
Mouse RAGE/Fc (mouse) [2] = molecular target: Mouse RAGE/Fc (mouse) (UniProt Q62151); assay: ELISA on RAGE-Fc
Mouse RAGE/Fc (mouse) [3] = molecular target: Mouse RAGE/Fc (mouse) (UniProt Q62151); assay: ELISA on coated RAGE/Fc
Mouse RAGE/Fc (mouse) [4] = molecular target: Mouse RAGE/Fc (mouse) (UniProt Q62151); assay: ELISA, coated RAGE/Fc, biotin labeled CpG-A detected
Mouse RAGE/Fc (mouse) [5] = molecular target: Mouse RAGE/Fc (mouse) (UniProt Q62151); assay: ELISA, HMGB1 titrated on RAGE-Fc in the presence of 0.3 µM CpG-A (right panel)
Mouse RAGE/Fc (mouse) [6] = molecular target: Mouse RAGE/Fc (mouse) (UniProt Q62151); assay: ELISA, HMGB1 titrated on RAGE-Fc in the presence of 0.03 µM CpG-A (right panel)
Mouse RAGE/Fc (mouse) [7] = molecular target: Mouse RAGE/Fc (mouse) (UniProt Q62151); assay: ELISA, HMGB1 titrated on RAGE-Fc in the presence of 0.003 µM CpG-A (right panel)
Mouse RAGE/Fc (mouse) [8] = molecular target: Mouse RAGE/Fc (mouse) (UniProt Q62151); assay: ELISA, RAGE/Fc coated on the plate, biotin labeled CpG-A in complex with HMGB1, detected with HRP streptavidin (left panel)
[9] = molecular target: recombinant rat HMGB-1, Europium-labeled (rat) (UniProt P63159); assay: inhibition of binding of Eu-labeled HMGB-1 to THP-1 cells
[10] = molecular target: recombinant rat HMGB-1, Europium-labeled (rat) (UniProt P63159); assay: inhibition of the binding of 2 nM Europium-labeled rat HMGB-1 to THP-1 cells, fluorescence at 615 nm

Row | binding (Mouse RAGE/Fc (mouse) [1]) | binding (Mouse RAGE/Fc (mouse) [2]) | binding (Mouse RAGE/Fc (mouse) [3]) | binding (Mouse RAGE/Fc (mouse) [4]) | binding (Mouse RAGE/Fc (mouse) [5]) | binding (Mouse RAGE/Fc (mouse) [6]) | binding (Mouse RAGE/Fc (mouse) [7]) | binding (Mouse RAGE/Fc (mouse) [8]) | binding [9] | binding [10] | Substance
1 | binds | binds | – | – | – | – | – | – | – | – | HMG1 purified from bovine (calf) thymus (from UniProt P10103 2-215)
2 | binds | – | binds | binds | binds | binds | binds | binds | – | – | HMGB1/CpG-A complex (from UniProt P10103 2-215)
3 | – | – | – | – | – | – | – | – | binds | binds | soluble human RAGE-Fc (from UniProt Q15109 23-344) (Fc fusion)
